Data: paper PMC5035054
These are yes or no findings as the source states them, for the method shown. Binding seen in cells or lysates may run through a third protein. These calls come from enrichment with a bait or labelling near it, and not all partners need be listed. No binding means not detected with the bait.

Protein sequences, listed by entry. Tags and fused reporters are not part of them.
UniProt P08579: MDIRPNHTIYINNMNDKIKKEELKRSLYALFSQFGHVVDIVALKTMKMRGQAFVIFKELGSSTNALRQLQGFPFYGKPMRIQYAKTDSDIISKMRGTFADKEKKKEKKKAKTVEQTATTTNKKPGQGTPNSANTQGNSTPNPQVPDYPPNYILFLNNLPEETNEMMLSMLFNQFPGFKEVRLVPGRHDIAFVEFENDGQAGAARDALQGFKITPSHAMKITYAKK

Target: FLAG-V5-tagged U2-B” (FV5-U2-B”) (UniProt P08579)
Assay: affinity purification with mass spectrometry; in vitro splicing reaction of NEB” nuclear extract with AdML pre-mRNA and ATPγS, Sephacryl-S500 gel filtration, pooled spliceosome fractions on anti-FLAG M2 Affinity Gel, mass spectrometry; two independent experiments

binding: no binding
B1: SMARCAD1 (protein, UniProt Q9H4L7 1-1026)
chain: MNLFNLDRFRFEKRNKIEEAPEATPQPSQPGPSSPISLSAEEENAEGEVSRANTPDSDITEKTEDSSVPETPDNERKASISYFKNQRGIQYIDLSSDSEDVVSPNCSNTVQEKTFNKDTVIIVSEPSEDEESQGLPTMARRNDDISELEDLSELEDLKDAKLQTLKELFPQRSDNDLLKLIESTSTMDGAIAAALLMFGDAGGGPRKRKLSSSSEPYEEDEFNDDQSIKKTRLDHGEESNESAESSSNWEKQESIVLKLQKEFPNFDKQELREVLKEHEWMYTEALESLKVFAEDQDMQYVSQSEVPNGKEVSSRSQNYPKNATKTKLKQKFSMKAQNGFNKKRKKNVFNPKRVVEDSEYDSGSDVGSSLDEDYSSGEEVMEDGYKGKILHFLQDASIGELTLIPQCSQKKAQKITELRPFNSWEALFTKMSKTNGLSEDLIWHCKTLIQERDVVIRLMNKCEDISNKLTKQVTMLTGNGGGWNIEQPSILNQSLSLKPYQKVGLNWLALVHKHGLNGILADEMGLGKTIQAIAFLAYLYQEGNNGPHLIVVPASTIDNWLREVNLWCPTLKVLCYYGSQEERKQIRFNIHSRYEDYNVIVTTYNCAISSSDDRSLFRRLKLNYAIFDEGHMLKNMGSIRYQHLMTINANNRLLLTGTPVQNNLLELMSLLNFVMPHMFSSSTSEIRRMFSSKTKSADEQSIYEKERIAHAKQIIKPFILRRVKEEVLKQLPPKKDRIELCAMSEKQEQLYLGLFNRLKKSINNLEKNTEMCNVMMQLRKMANHPLLHRQYYTAEKLKEMSQLMLKEPTHCEANPDLIFEDMEVMTDFELHVLCKQYRHINNFQLDMDLILDSGKFRVLGCILSELKQKGDRVVLFSQFTMMLDILEVLLKHHQHRYLRLDGKTQISERIHLIDEFNTDMDIFVFLLSTKAGGLGINLTSANVVILHDIDCNPYNDKQAEDRCHRVGQTKEVLVIKLISQGTIEESMLKINQQKLKLEQDMTTVDEGDEGSMPADIATLLKTSMGL
